PubChem BioAssay AID504444 (National Center for Advancing Translational Sciences (NCATS), 2011)
Several values for one entry are separate records, joined by “and”; a condition that tells them apart may be missing. Equal values may be shown once. Out of some 360,000 compounds screened, about 7,500 (2.1%) were called active. Inconclusive results, whose numbers are uncertain, are shown with a selection of clear calls. Calls follow the shape of the dose curve; as a rule, active = well fitted inhibition curve with a large enough effect; inconclusive = small, poorly fitted or top-dose-only effect, or effect the other way; inactive = flat fitted curve, though single readings scatter. Potencies beside an inconclusive call are fits to weak or partial responses and may not hold up.

assay: Nrf2 qHTS screen for inhibitors; conditions: A549 ARE-Fluc reporter, luciferase luminescence, 18-24 h; activity change, negative = inhibition: at 46 µM (top of the series); also: nearly all actives have a fitted effect of over 60% in size
In short: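 Cells were seeded and rested 2 h, then exposed to compounds for 18-24 h. CellTiter-Fluor was read first as a viability measure. BugLite was added 15 min before the final luminescent read of ARE-luciferase activity in A549 cells.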
% is scaled to controls: 0 for no effect and ±100 for the full control effect; potency is read from the fitted curve at half-maximal effect.

Row | SMILES | Potency | activity change, negative = inhibition
1 | CCC(c1nnc(SCC(=O)Nc2cccnc2Cl)n1-c1ccccc1)N(C)C (configuration not stated) | inconclusive: 0.231 µM [activator, full curve] | 
2 | C(=N\Nc1nc2ccccc2[nH]1)/c1cccc2cccnc12 | inconclusive: 10.3 µM [falling, partial curve] | 
3 | COCCNc1nc(-c2ccc(OC)cc2)c(-c2ccc(OC)cc2)s1 | inconclusive: 32.6 µM [falling, single point] | 
4 | CC(=O)c1ccc(NC(=O)c2cn(-c3ccccc3)nc2-c2ccc(Br)cc2)cc1 |  | inactive: 6.7%
5 | Cc1ccc(F)cc1NC(=O)c1sc2ncn(CC(=O)N3CCN(c4ccccn4)CC3)c(=O)c2c1C | inconclusive: 2.59 µM [falling, partial curve, poor fit] | 
6 | CCC(C)(C)C1CCc2[nH]nc(C(=O)NCC3CC3)c2C1 (configuration not stated) |  | inactive: -17.4%
7 | Cc1ccc(NCC(=O)N/N=C/c2cc3ccccc3nc2Cl)cc1 | inconclusive: 23.1 µM [activator, partial curve, poor fit] | 
8 | Cc1ccc(Cl)cc1NC(=S)N(Cc1cccs1)C1CCCC1 | inconclusive: 29.1 µM [falling, single point] | 
9 | Cc1cccc(C(=O)NC(C(=O)Nc2nc(-c3ccccn3)cs2)C(C)C)c1 (configuration not stated) | inconclusive: 23.1 µM [falling, single point] | 
10 | CCCOc1ccc([N+](=O)[O-])cc1C1NC(=S)NC(c2ccccc2)=C1C(=O)OCC (configuration not stated) | inconclusive: 29.1 µM [falling, single point] | 
11 | CN(C)S(=O)(=O)c1ccc(Cl)c(NC(=O)CNC2(C)CCS(=O)(=O)C2)c1 (configuration not stated) |  | inactive: 1.46%
12 | CCc1nnc(SC(CC)C(=O)Nc2ccc(OC)c(Cl)c2)c2cc3occc3n12 (configuration not stated) | inconclusive: 29.1 µM [falling, single point] | 
13 | Cc1ccc(C2Cc3cc(O)c(O)cc3CN2)cc1 (configuration not stated) | inconclusive: 29.1 µM [activator, single point] | 
14 | Cc1cccc(N/N=C(\C#N)S(=O)(=O)C(C)(C)C)c1 | inconclusive: 29.1 µM [falling, single point] | 
15 | O=C(NCc1ccc2c(c1)OCO2)c1ccccn1 | inconclusive: 17.8 µM [activator, single point] | 
16 | CSCC[C@H](NC(=O)OC(C)(C)C)C(=O)N/N=C/c1cccc2cccnc12 |  | inactive: 20.4%
17 | CC1CCCN(S(=O)(=O)c2ccc(C(=O)Nc3nnc(-c4ccccn4)o3)cc2)C1 (configuration not stated) | active: 13 µM | 
18 | N#Cc1nc(COc2ccccc2Cl)oc1NCCc1ccccc1 | inconclusive: 29.1 µM [falling, single point] | 
19 | Cc1ccc(Nc2ccc3cc(S(=O)(=O)N4CCCCC4)ccc3n2)cc1F | inconclusive: 32.6 µM [falling, single point] | 
20 | COc1ccc(C)cc1NC(=O)Cn1c(=O)oc2cc(S(=O)(=O)N3CCCCC3)ccc21 | inconclusive: 20.6 µM [falling, partial curve] | 
21 | Cc1ccc(CNCC(O)(c2ccccc2)c2ccc(Cl)cc2)cc1 (configuration not stated) | inconclusive: 29.1 µM [activator, single point] | 
22 | CCOC(=O)C1C(=O)C=C(/C=C/c2ccccc2)CC1c1ccc(Cl)cc1 (configuration not stated) | inconclusive: 32.6 µM [falling, single point] | 
23 | CCOC(=O)c1ccc(NC(=O)CSc2nc(-c3ccc(OC)cc3)cc(C(F)(F)F)c2C#N)cc1 | inconclusive: 0.92 µM [activator, full curve, poor fit] | 

An excerpt of these results, in CSV form:
Row,SMILES,Potency,"activity change, negative = inhibition"
11,CN(C)S(=O)(=O)c1ccc(Cl)c(NC(=O)CNC2(C)CCS(=O)(=O)C2)c1 (configuration not stated),,inactive: 1.46%
12,CCc1nnc(SC(CC)C(=O)Nc2ccc(OC)c(Cl)c2)c2cc3occc3n12 (configuration not stated),"inconclusive: 29.1 µM [falling, single point]",
13,Cc1ccc(C2Cc3cc(O)c(O)cc3CN2)cc1 (configuration not stated),"inconclusive: 29.1 µM [activator, single point]",
14,Cc1cccc(N/N=C(\C#N)S(=O)(=O)C(C)(C)C)c1,"inconclusive: 29.1 µM [falling, single point]",
15,O=C(NCc1ccc2c(c1)OCO2)c1ccccn1,"inconclusive: 17.8 µM [activator, single point]",
16,CSCC[C@H](NC(=O)OC(C)(C)C)C(=O)N/N=C/c1cccc2cccnc12,,inactive: 20.4%
17,CC1CCCN(S(=O)(=O)c2ccc(C(=O)Nc3nnc(-c4ccccn4)o3)cc2)C1 (configuration not stated),active: 13 µM,
18,N#Cc1nc(COc2ccccc2Cl)oc1NCCc1ccccc1,"inconclusive: 29.1 µM [falling, single point]",
19,Cc1ccc(Nc2ccc3cc(S(=O)(=O)N4CCCCC4)ccc3n2)cc1F,"inconclusive: 32.6 µM [falling, single point]",
20,COc1ccc(C)cc1NC(=O)Cn1c(=O)oc2cc(S(=O)(=O)N3CCCCC3)ccc21,"inconclusive: 20.6 µM [falling, partial curve]",
21,Cc1ccc(CNCC(O)(c2ccccc2)c2ccc(Cl)cc2)cc1 (configuration not stated),"inconclusive: 29.1 µM [activator, single point]",
22,CCOC(=O)C1C(=O)C=C(/C=C/c2ccccc2)CC1c1ccc(Cl)cc1 (configuration not stated),"inconclusive: 32.6 µM [falling, single point]",

Next entries

Row | SMILES | Potency | activity change, negative = inhibition
24 | Cc1ccc(Sc2cnn(-c3ccccc3)c(=O)c2Cl)cc1 |  | inactive: 6.14%
25 | Cc1ccc(C)c(SCC(=O)Nc2ccc(C)c(S(=O)(=O)N3CCOCC3)c2)c1 | inconclusive: 23.1 µM [falling, single point] | 
26 | COc1ccc(N(CC(=O)N2CCN(c3ccccc3)CC2)S(=O)(=O)c2c(C)nn(C)c2C)cc1 |  | inactive: 8.95%
27 | COc1ccc(OC)c(C2C(C(=O)Nc3nc4ccccc4s3)=C(C)NC3=C2C(=O)CCC3)c1 (configuration not stated) |  | inactive: -27.7%
28 | COc1ccc(OCc2nnc(SCC(=O)N3CCCCC3)o2)cc1 | inconclusive: 2.59 µM [falling, partial curve, poor fit] | 
29 | O=C(O)/C=C/c1cn(-c2ccccc2)nc1-c1cc2ccccc2oc1=O | inconclusive: 0.92 µM [activator, full curve] | 
30 | O=C(NCCCc1ccccc1)C(=O)NCC1OCCN1S(=O)(=O)c1cc(F)ccc1F (configuration not stated) | inconclusive: 0.184 µM [falling, partial curve, poor fit] | 
31 | Cc1sc2ncnc(SCC(=O)Nc3ncccc3O)c2c1C |  | inactive: 11.9%
32 | COc1ccccc1Nc1nc(-c2ccc(F)cc2)c2c(n1)-c1ccccc1OC2 |  | inactive: 4.25%
33 | COc1nnc(-c2ccc(N3CCOCC3)c(NC(=O)C3CCCCC3)c2)c2ccccc12 |  | inactive: -9.86%
34 | Cc1cc(O)ccc1NS(=O)(=O)c1ccc2c3c(cccc13)C(=O)N2 |  | inactive: -13.9%
35 | N#CCSc1nc2ccc(N3CCOCC3)cc2c(=O)n1CCc1ccccc1 | inconclusive: 4.11 µM [falling, partial curve, poor fit] | 
36 | COc1ccccc1NC(=O)c1c(C)cc(C)nc1SCC(=O)Nc1ccc(C)c(C)c1 | inconclusive: 23.1 µM [falling, single point] | 
37 | Cc1cc(C)c(NS(=O)(=O)c2ccc3c(c2)CC(C)N3C(=O)C2CCC2)c(C)c1 (configuration not stated) | active: 20.6 µM | 
38 | CN(C)c1cc[n+](CC(=O)Nc2ccc(Cl)cc2)cc1 | active: 6.51 µM | 
39 | O=S(=O)(Nc1nc2ccccc2nc1Cl)c1ccc(Cl)cc1 | inconclusive: 29.1 µM [falling, single point] | 
40 | CCOc1ccc(CN2CCN(Cc3cnc(-c4ccccc4)s3)CC2CCO)cc1 (configuration not stated) | inconclusive: 20.6 µM [falling, single point] | 
41 | Cc1ccc(NC(=O)Nc2cccc(C)n2)cc1 | inconclusive: 3.26 µM [activator, full curve] and inconclusive: 1.64 µM [activator, full curve, poor fit] | 
42 | CC(C)(C)C(=O)NNC(=O)COc1ccc2ccccc2c1Br |  | inactive: 11.8%
43 | Cc1ccc(C2=NN(C(=O)CSc3nccn3C)C(c3ccco3)C2)cc1 (configuration not stated) | inconclusive: 0.0092 µM [falling, full curve, poor fit] | 
44 | CCOc1ccc(C2CC(=O)NC(NC(=O)c3cccc(Cl)c3)=N2)cc1 (configuration not stated) | inconclusive: 29.1 µM [activator, single point] | 
45 | O=C(Nc1cccc(-c2nc3cccnc3s2)c1)c1ccco1 |  | inactive: -15%
46 | O=[N+]([O-])c1ccc(N2CCN(c3ccc([N+](=O)[O-])cc3CO)CC2)c(CO)c1 | inconclusive: 20.6 µM [falling, single point] | 

Row | SMILES | Potency | activity change, negative = inhibition
47 | CCN(CC)S(=O)(=O)c1ccc(NC(=O)CN(c2cccc(C)c2)S(C)(=O)=O)cc1 | inconclusive: 25.9 µM [falling, partial curve] | 
48 | CC(=NNC(=S)Nc1cccc(Cl)c1)c1ccccn1 | inconclusive: 6.51 µM [falling, single point] | 
49 | Cc1cc(=O)[nH]c(SCC(=O)N2CCN(C(c3ccccc3)c3ccccc3)CC2)n1 | inconclusive: 9.2 µM [falling, partial curve, poor fit] | 
50 | Cc1ccc(C(=O)N2CCc3ccccc32)cc1 | inconclusive: 1.3 µM [activator, full curve, poor fit] | 
51 | CC1C2C(c3ccccc3)N(C)C(=O)N(C)C2N(C)C(=O)N1C (configuration not stated) | inconclusive: 6.51 µM [activator, single point] | 
52 | CC(=O)Nc1nc(-c2ccc3c(c2)CCN3C(=O)C2CC2)c(C)s1 | inconclusive: 23.1 µM [activator, partial curve] | 
53 | C/C(=N\NC(=O)C1=NNC(=O)C1C)c1cccs1 (configuration not stated) | inconclusive: 10.3 µM [activator, partial curve, poor fit] | 
54 | CCOc1ccc(C(=O)Cc2ccccc2)cc1 | inconclusive: 16.4 µM [activator, partial curve] | 
55 | CC(=O)N/C(=N\c1nc(C)cc(C)n1)Nc1ccc2ccccc2c1 | inconclusive: 20.6 µM [activator, partial curve] | 
56 | CCNC(=S)N/N=C/c1cccc(OCc2c(F)cccc2Cl)c1 | inconclusive: 29.1 µM [falling, single point] | 
57 | O=S1(=O)c2cccc3cccc(c23)N1Cc1ccc(-c2nnco2)cc1 | inconclusive: 18.4 µM [falling, single point] | 
58 | CCOC(=O)c1c(NC(=O)CCC(=O)NCc2ccco2)sc2c1CCCC2 | inconclusive: 23.1 µM [falling, partial curve, poor fit] | 
59 | COC(=O)C(CCSC)NC(=O)Cn1ncc2c([nH]c3ccccc32)c1=O (configuration not stated) |  | inactive: 14.8%
60 | Cc1ccc2nc(NC(=S)NC(=O)c3cccs3)sc2c1 | inconclusive: 2.31 µM [activator, full curve] | 
61 | Cc1cc(C)cc(OCC(=O)N(Cc2ccc(N(C)C)cc2)C2CCS(=O)(=O)C2)c1 (configuration not stated) |  | inactive: -24.3%
62 | COc1ccc(/C=N/NC(=O)c2[nH]c(C)c(C(=O)N/N=C/c3ccc(OC)cc3)c2C)cc1 | inconclusive: 29.1 µM [falling, partial curve, poor fit] | 
63 | CCOP(=O)(OCC)c1nc(-c2cccc3ccccc23)oc1NCc1ccc(OC)cc1 | inconclusive: 29.1 µM [falling, single point] | 
64 | Cc1ccc(C2CC(c3cccs3)=NN2C(=O)CSC2=NCCS2)cc1 (configuration not stated) | active: 16.4 µM | 
65 | O=S(=O)(NN=C1CCCCCC1)c1ccccc1 |  | inactive: -5.35%
66 | Cc1ccccc1NC(=S)c1ccc2ccccc2n1 | inconclusive: 2.59 µM [activator, partial curve] | 
67 | CCn1c(CNC(=O)c2ccc(OC)c(OC)c2)nnc1SCC(=O)Nc1ccc(OC)cc1 | inconclusive: 20.6 µM [activator, single point] | 
